The values that follow come from patent EP2114888B1, “TRICYCLIC COMPOUNDS AND THEIR USE AS GLUCOCORTICOID RECEPTOR MODULATORS” (priority 2007, dated 2008).

The structures appear in SMILES notation. Bounds are passed on as bounds.

A short description of the data set: Dissociation index (side-effect endpoint / anti-inflammatory endpoint). To be noted: for Dissociation index OC/TNFα (ED50): osteocalcin suppression ED50 / TNFα suppression ED50; for Dissociation index OC/TNFα (ED80): osteocalcin suppression ED80 / TNFα suppression ED80. Set-up: species or system mice.
The mark [1] stands for this setting: across mice in different models, plasma exposure to normalize.
Where [2] appears, read: data compared in mice in the same model.

`Cc1c(NC(=O)c2ccc3c(c2)CC[C@@H]2C[C@@](O)(C(F)(F)F)CC[C@@]32Cc2ccccc2)ccc[n+]1[O-]` [Comparator G, reference compound]: the “Dissociation index OC/TNFα (ED50)” value was found to be 0.39 and the “Dissociation index OC/TNFα (ED80)” value came out at 2.18.

On to `Cc1ncccc1NC(=O)c1ccc2c(c1)C=C[C@@H]1C[C@@](O)(C(F)(F)F)CC[C@@]21Cc1ccccc1` [Comparator I, (4βS,7R,8αS)-4β-benzyl-7-hydroxy-N-(2-methylpyridin-3-yl)-7-(trifluoromethyl)-4β,5,6,7,8,8α-hexahydrophenanthrene-2-carboxamide], for which the “Dissociation index OC/TNFα (ED50)” value stood at 7.12 and the “Dissociation index OC/TNFα (ED80)” value is recorded as more than 3.67.

As to `Cc1ncc(NC(=O)c2ccc3c(c2)CC[C@@H]2C[C@@](O)(CCC(F)(F)F)CC[C@@]32Cc2ccccc2)c(C)n1` [Comparator J, (4βS,7S,8αR)-4β-benzyl-N-(2,4-dimethylpyrimidin-5-yl)-7-hydroxy-7-(3,3,3-trifluoropropyl)-4β,5,6,7,8,8α,9,10-octahydrophenanthrene-2-carboxamide], the “Dissociation index OC/TNFα (ED50)” value stood at 8.11 and the “Dissociation index OC/TNFα (ED80)” value is listed as 4.53.

Consider `Cc1ncccc1NC(=O)c1ccc2c(c1)CC[C@@H]1C[C@@](O)(C(F)(F)F)CC[C@@]21Cc1ccccc1` [Example 1, (4βS,7R,8αR)-4β-benzyl-7-hydroxy-N-(2-methylpyridin-3-yl)-7-(trifluoromethyl)-4β,5,6,7,8,8α,9,10-octahydrophenanthrene-2-carboxamide], for which, under setting [1], the “Dissociation Index BFR/disease incidence, EAUC50” value was 6.8; the “Dissociation Index BFR/disease incidence, EAUC80” value was determined as 15.5; the “Dissociation Index BFR/disease severity, EAUC50” value is given as 3.0; the “Dissociation Index BFR/disease severity, EAUC80” value came to 8.2. For the same molecule, under setting [2], the “Dissociation Index BFR/ TNFα, EAUC50” value worked out at 1.2; the “Dissociation Index BFR/ TNFα, EAUC80” value was found to be 4.7; the “Dissociation Index OC/TNFα, EAUC50” value came to 5.9; the “Dissociation Index OC/TNFα, EAUC80” value turned out to be 12.7. Also, where the note is “data set 2”, the “Corrected dissociation indices (DI) BFR / TNFα, EAUC50” value was determined as 16.0; the “Corrected dissociation indices (DI) BFR / TNFα, EAUC80” value is 7.6; the “Corrected dissociation indices (DI) BFR / disease incidence, EAUC50” value is given as 14.5; the “Corrected dissociation indices (DI) BFR / disease incidence, EAUC80” value is given as 10.6. Under “data set 2”, the “Corrected dissociation indices (DI) BFR / disease severity, EAUC50” value amounted to 13.0; the “Corrected dissociation indices (DI) BFR / disease severity, EAUC80” value came to 15.5; the “Corrected dissociation indices (DI) OC / TNFα, EAUC50” value stood at 8.6; the “Corrected dissociation indices (DI) OC / TNFα, EAUC80” value is reported as 7.4. For the same molecule, where the note is “listed as Example 1 free base”, the “Dissociation index OC/TNFα (ED50)” value was found to be 6.33 and the “Dissociation index OC/TNFα (ED80)” value is recorded as more than 5.49. In addition, where the note is “relative to prednisolone”, the “Corrected Dissociation Index BFR/TNFα, EAUC50” value stood at 7.8; the “Corrected Dissociation Index BFR/disease incidence, EAUC50” value is listed as 15.5; the “Corrected Dissociation Index BFR/disease severity, EAUC50” value was found to be 16.4; the “Corrected Dissociation Index OC/TNFα, EAUC50” value is 8.4. Moreover, the “Corrected Dissociation Index OC/TNFα, EAUC80” value (relative to prednisolone) is recorded as 7.5.
